Measurements: the supplement of paper PMC7024190
Structures can show the parent of a compound that is named as a salt. The list shows a part of the results. Repeats in this data set agree poorly, so a single value says little.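 The cells were human embryonic kidney cells carrying a Renilla luciferase gene, driven by the HSV-TK promoter, on a plasmid put in briefly by transfection. This is the first-round screen of about ten thousand compounds, looking for ones that raise reporter output.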

System: HEK 293FT
Assay: log relative Renilla luciferase luminescence (reporter expression vs reference, reference not stated) (log (base not stated)); higher = higher recombinant reporter expression
Details: 10 µM; time after transfection 48 h

SMILES | log
CC(CN1c2ccccc2Sc2ccccc21)N(C)C (centres undefined) [promethazine hydrochloride] | -0.0474
C=C1[C@H]2CC[C@@]3(C)[C@H](c4ccoc4)OC(=O)C[C@]13O[C@H]1C[C@H](O)C(C)(C)[C@H](CC(=O)OC)[C@]12C [3-deoxy-3beta-hydroxyangolensic acid methyl ester] | 0.18
O=C(CCCCCCCCCCCCC1CCCC1)Nc1ccc(S(=O)(=O)c2ccc(NC(=O)CCCCCCCCCCCCC3CCCC3)cc2)cc1 [chaulmosulfone] | -0.13
NS(=O)(=O)c1cc2c(cc1C(F)(F)F)NC(Cc1ccccc1)NS2(=O)=O (centres undefined) [bendroflumethiazide] | 0.126
S=P(N1CC1)(N1CC1)N1CC1 [thiotepa] | 0.0682
CC(C)[C@@H]1CC[C@@H](C)C[C@H]1OC(=O)c1ccccc1 [menthyl benzoate] | -0.0304
Nc1nc(N)nc(-c2cc(Cl)ccc2Cl)n1 [irsogladine maleate] | 0.0791
CCN1CCCC1CNC(=O)c1cc(S(=O)(=O)CC)c(N)cc1OC (centres undefined) [amisulpride] | 0.00103
Cc1cc(O)cc(=O)o1 [4-hydroxy-6-methylpyran-2-one] | 0.209
CC(C)[C@H]1CC[C@H](C(=O)N[C@H](Cc2ccccc2)C(=O)O)CC1 [nateglinide] | -0.0474
COC(=O)/C(=C1/OC(=O)C(c2ccccc2)=C1O)c1ccccc1 [vulpinic acid] | -0.623
CC(=O)Oc1cccc(C(=O)O)c1OC(C)=O [dipyrocetyl] | 0.071
COC(=O)[C@@H]1OC(=O)C2OC23[C@@]1(C)CCC1[C@]2(C)C(C[C@@H](O)[C@]13C)C(C)(C)[C@H](OC(C)=O)C[C@@H]2OC(C)=O (some centres undefined) [desacetyl (7)khivorinic acid, methyl ester] | 0.00612
COc1ccc(C(C)=O)c(O)c1 [paeonol] | 0.0642
CC(C)c1nc(CN(C)C(=O)N[C@H](C(=O)N[C@@H](Cc2ccccc2)C[C@H](O)[C@H](Cc2ccccc2)NC(=O)OCc2cncs2)C(C)C)cs1 [ritonavir] | -0.114
COc1ccccc1OCCNCC(O)COc1cccc2[nH]c3ccccc3c12 (centres undefined) [carvedilol] | 0.0664
COc1ccccc1OCCNCC(O)COc1cccc2[nH]c3ccccc3c12 (centres undefined) [carvedilol phosphate] | 0.133
CC1CCc2cc(F)cc3c(=O)c(C(=O)O)cn1c23 (centres undefined) [flumequine] | 0.0299
COc1cc2c(cc1OC)-c1c(oc3cc(O)cc(O)c3c1=O)CO2 [apotoxicarol] | -0.0745
CCCCOc1ccc(OCCCN2CCOCC2)cc1 [pramoxine hydrochloride] | 0.105
CC(CCc1ccc(O)cc1)NCCc1ccc(O)c(O)c1 (centres undefined) [dobutamine hydrochloride] | 0.114
O=c1cc(-c2ccccc2)oc2ccc(O)cc12 [6-hydroxyflavone] | 0.262

Given in markdown: entries from further up

| SMILES | log |
| --- | --- |
| CCCCOc1ccc(OCCCN2CCOCC2)cc1 [pramoxine hydrochloride] | 0.105 |
| CC(CCc1ccc(O)cc1)NCCc1ccc(O)c(O)c1 (centres undefined) [dobutamine hydrochloride] | 0.114 |

Continued:

SMILES | log
CCOc1nc2cccc(C(=O)OC(C)OC(=O)OC3CCCCC3)c2n1Cc1ccc(-c2ccccc2-c2nn[nH]n2)cc1 (centres undefined) [candesartan cilextil] | 0.275
Nc1ccc(S(N)(=O)=O)cc1 [sulfanilamide] | 0.0919
CC1CCN(CCCC(=O)c2ccc(F)cc2)CC1 [melperone hydrochloride] | -0.164
Nc1ncnc2c1ncn2[C@H]1C[C@H](O)[C@@H](CO)O1 [deoxyadenosine] | 0.0621
COc1ccc2c(c1)OCC(Cc1ccc(OC)c(OC)c1)C2=O (centres undefined) [deoxysappanone b trimethyl ether] | -0.00397
COc1ccc([C@H]2Oc3cc(OC)cc(OC)c3C[C@H]2O)cc1 [epiafzelechin trimethyl ether] | -0.0105
CCC(C)(C)c1ccc(CC(C)CN2C[C@@H](C)O[C@@H](C)C2)cc1 (some centres undefined) [amorolfine hydrochloride] | 0.0663
CC[C@]12CCCN3CCc4c(n(c5ccccc45)[C@@](O)(C(=O)OC)C1)[C@@H]32 [vincamine] | 0.117
NC(=O)C1(N2CCCCC2)CCN(CCCC(=O)c2ccc(F)cc2)CC1 [pipamperone] | -0.0546
CCCCCCCCCCCCCCCC[N+](C)(C)C [cetrimonium bromide] | -1.75
O=C(O)CCc1nc2ccccc2[nH]1 [procodazole] | 0.125
C[C@@H]1CC2C3C[C@H](F)C4=CC(=O)C=C[C@]4(C)[C@@]3(F)[C@@H](O)C[C@]2(C)[C@@]1(O)C(=O)COC(=O)C(C)(C)C (some centres undefined) [flumethazone pivalate] | 0.0583
C=C(NC(=O)C(=C)NC(=O)c1csc(C2=N[C@@H]3c4csc(n4)[C@H]4NC(=O)c5csc(n5)[C@H]([C@](C)(O)[C@@H](C)O)NC(=O)[C@H]5CSC(=N5)/C(=C/C)NC(=O)[C@H]([C@@H](C)O)NC(=O)c5csc(n5)[C@]3(CC2)NC(=O)[C@H](C)NC(=O)C(=C)NC(=O)[C@H](C)NC(=O)[C@H]([C@@H](C)CC)N[C@@H]2C=Cc3c([C@H](C)O)cc(nc3[C@H]2O)C(=O)O[C@@H]4C)n1)C(N)=O [thiostrepton] | -0.563
Cn1c(=O)c2c(ncn2CC(O)CO)n(C)c1=O (centres undefined) [dyphylline] | -0.243
CCCc1nc(C(C)(C)O)c(C(=O)OCc2oc(=O)oc2C)n1Cc1ccc(-c2ccccc2-c2nnn[nH]2)cc1 [olmesartan medoxomil] | -0.054
NC(=O)c1cccnc1 [niacinamide] | 0.00906
Nc1nccs1 [aminothiazole] | -0.109
COc1cc(C)c2c(=O)cc(-c3ccccc3)oc2c1 [methoxyvone] | -0.152
CC(C)(Oc1ccc(C2CC2(Cl)Cl)cc1)C(=O)O (centres undefined) [ciprofibrate] | 0.044
CC1=C(C(=O)O)N2C(=O)[C@@H](NC(=O)[C@H](N)c3ccc(O)cc3)[C@H]2SC1 [cefadroxil] | -0.116
OC[C@H]1O[C@@H](O[C@H]2[C@H](O)[C@@H](O)[C@@H](O)O[C@@H]2CO)[C@H](O)[C@@H](O)[C@@H]1O [cellobiose (d[+])] | 0.145
CC[C@]1(O)C[C@@H]2CN(CCc3c([nH]c4ccccc34)[C@@](C(=O)OC)(c3cc4c(cc3OC)N(C)[C@H]3[C@@](O)(C(=O)OC)[C@H](OC(C)=O)[C@]5(CC)C=CCN6CC[C@]43[C@@H]65)C2)C1 [vinblastine sulfate] | -0.172
